Values from PubChem BioAssay AID743121 (NCATS, 2013).
Screen: 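Genes whose silencing strengthens cell killing by camptothecin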 (primary screen). Cells: MDA-MB-231 cells, a human breast cancer line. Reagent: single siRNA against human genes, 20 nM siRNA (0.8 pmol per well). Duration: 120 h (drug added 48 h after transfection, read 72 h later). Challenge: camptothecin 20 nM (about EC30) for 72 h; vehicle 0.1% DMSO in parallel plates. Measurement: 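CellTiter-Glo ATP signal, scaled to control siRNA as percent viability; sensitisation given as log2 of untreated divided by camptothecin-treated viability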. Reading the numbers: log2 vehicle/camptothecin viability: higher = stronger sensitisation to camptothecin; viability with camptothecin and viability without drug: higher = more viable cells. Hit rule: 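Active genes have an RSA gene-level p-value below 0.001, computed from the ratios of their separate siRNAs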.
This is an unselected part of about 26,000 reagents tested. Of all reagents, 167 (0.63%) were called active. 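Calls are per gene from RSA p-values that are not deposited; an individual active-marked siRNA can sensitise only weakly.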 Unmarked entries are inactive. Reagent sequences are not shown.

target	PubChem SID	log2 vehicle/camptothecin viability	viability with camptothecin (% of control)	viability without drug (% of control)
SEC11A (SEC11 homolog A, signal peptidase complex subunit)	SID164448250	-0.178	107	95
SEC11A (SEC11 homolog A, signal peptidase complex subunit)	SID164448251	-0.239	70.3	59.6
SEC11A (SEC11 homolog A, signal peptidase complex subunit)	SID164448252	0.00807	97.6	98.2
SEC11A (SEC11 homolog A, signal peptidase complex subunit)	SID164448253	-0.407	112	84.4
PALS1 (protein associated with LIN7 1, MAGUK p55 family member)	SID164502496	-0.268	88.6	73.6
PALS1 (protein associated with LIN7 1, MAGUK p55 family member)	SID164502497	-0.109	103	95.6
PALS1 (protein associated with LIN7 1, MAGUK p55 family member)	SID164502498	-0.0634	92.3	88.3
PALS1 (protein associated with LIN7 1, MAGUK p55 family member)	SID164502500	0.163	95.9	107
NRIP2 (nuclear receptor interacting protein 2)	SID164541336	-0.318	56.6	45.4
NRIP2 (nuclear receptor interacting protein 2)	SID164541337	-0.219	102	87.4
NRIP2 (nuclear receptor interacting protein 2)	SID164541338	-0.0547	83.2	80.1
NRIP2 (nuclear receptor interacting protein 2)	SID164541339	-0.255	77.5	64.9
PRSS21 (serine protease 21)	SID164414423	0.125	48.7	53.1
PRSS21 (serine protease 21)	SID164414425	0.681	29	46.5
PRSS21 (serine protease 21)	SID164414427	0.0909	97.8	104
PRSS21 (serine protease 21)	SID164414429	1.11	29.2	63.3
BCAR1 (BCAR1 scaffold protein, Cas family member)	SID164404577	-0.0717	51.1	48.7
BCAR1 (BCAR1 scaffold protein, Cas family member)	SID164404579	0.0282	51.4	52.5
BCAR1 (BCAR1 scaffold protein, Cas family member)	SID164404581	-0.476	55.6	40
BCAR1 (BCAR1 scaffold protein, Cas family member)	SID164404582	-0.177	66.4	58.7
MC5R (melanocortin 5 receptor)	SID164375001	-0.249	84.5	71.1
MC5R (melanocortin 5 receptor)	SID164375004	0.0137	77.9	78.6
MC5R (melanocortin 5 receptor)	SID164375005	-0.235	74.3	63.1
MC5R (melanocortin 5 receptor)	SID164375006	-0.174	56	49.6
DPF2 (double PHD fingers 2)	SID164385089	0.0287	105	108
DPF2 (double PHD fingers 2)	SID164385090	-0.206	42.8	37.1
DPF2 (double PHD fingers 2)	SID164385092	-0.246	41.2	34.8
DPF2 (double PHD fingers 2)	SID164385097	-0.0157	28.9	28.6
RARG (retinoic acid receptor gamma)	SID164384705	-0.172	67	59.4
RARG (retinoic acid receptor gamma)	SID164384706	-0.285	100	82.2
RARG (retinoic acid receptor gamma)	SID164384707	0.0586	27.6	28.8
RARG (retinoic acid receptor gamma)	SID164384709	0.0328	60.4	61.7
RARG (retinoic acid receptor gamma)	SID164384710	0.00199	25.3	25.3
RARG (retinoic acid receptor gamma)	SID164384711	-0.291	56.6	46.2
RARG (retinoic acid receptor gamma)	SID164384713	-0.186	76.4	67.2
RARG (retinoic acid receptor gamma)	SID164384714	-0.0422	88.5	85.9
SLC10A4	SID164586091	0.16	94.9	106
SLC10A4	SID164586092	0.0469	29.7	30.7
SLC10A4	SID164586094	-0.458	82.5	60
SLC10A4	SID164586095	0.0147	95.9	96.9
PTCH2 (patched 2)	SID164398916	-0.165	107	95
PTCH2 (patched 2)	SID164398918	1.37	25.2	65.1
PTCH2 (patched 2)	SID164398919	0.283	67.9	82.6
PTCH2 (patched 2)	SID164398921	0.614	38.8	59.3
UBC (ubiquitin C)	SID164393131	0.165	28.1	31.5
UBC (ubiquitin C)	SID164393133	0.146	64.5	71.4
UBC (ubiquitin C)	SID164393135	0.588	23.3	35
TK2 (thymidine kinase 2)	SID164391893	-0.0127	51.9	51.4
TK2 (thymidine kinase 2)	SID164391896	-0.345	59.5	46.9
TK2 (thymidine kinase 2)	SID164391897	0.258	71.4	85.4
TK2 (thymidine kinase 2)	SID164391898	-0.11	53.1	49.2
EIPR1 (EARP complex and GARP complex interacting protein 1)	SID164392819	-0.115	37.4	34.5
EIPR1 (EARP complex and GARP complex interacting protein 1)	SID164392821	-0.562	55.6	37.6
EIPR1 (EARP complex and GARP complex interacting protein 1)	SID164392822	-0.188	119	105
EIPR1 (EARP complex and GARP complex interacting protein 1)	SID164392823	-0.246	66.5	56.1
LINGO2 (leucine rich repeat and Ig domain containing 2)	SID164578012	-0.21	22.5	19.4
LINGO2 (leucine rich repeat and Ig domain containing 2)	SID164578013	-0.355	69.6	54.4
LINGO2 (leucine rich repeat and Ig domain containing 2)	SID164578016	-0.755	129	76.2
LINGO2 (leucine rich repeat and Ig domain containing 2)	SID164578018	-0.151	80.7	72.7
KLK8 (kallikrein related peptidase 8)	SID164416293	0.235	46.8	55.1
KLK8 (kallikrein related peptidase 8)	SID164416294	-0.152	57.2	51.5
KLK8 (kallikrein related peptidase 8)	SID164416295	-0.237	16.5	14
KLK8 (kallikrein related peptidase 8)	SID164416296	-0.21	43.9	37.9
TLR1 (toll like receptor 1)	SID164391983	-0.166	106	94.2
TLR1 (toll like receptor 1)	SID164391989	0.369	33.9	43.8
TLR1 (toll like receptor 1)	SID164391990	-0.416	97.5	73.1
CACNB1 (calcium voltage-gated channel auxiliary subunit beta 1)	SID164356233	-0.161	90.5	80.9
CACNB1 (calcium voltage-gated channel auxiliary subunit beta 1)	SID164356237	1.26	16.7	39.9
CACNB1 (calcium voltage-gated channel auxiliary subunit beta 1)	SID164356238	0.736	46.9	78
CACNB1 (calcium voltage-gated channel auxiliary subunit beta 1)	SID164356239	0.0271	89.9	91.6
